Test results reported in PMC10765089.
No constants are given. Whether binding was seen depends on the method and setting. For part of these data: In cells and extracts the contact can be indirect. Some entries that bind do so weakly or less than the wild type. Tags and fused reporters may be left off the sequences shown. One block for each binder: values may come before it.

Legend:
[1] = target: T1, Mito-HA-Par6A^Nter (UniProt Q9NPB6); assay: mitochondrial relocalisation; NIH/3T3 Flp-In cells transiently transfected for 24 h with a Mito-HA-tagged half of Par6A and the cytosolic GFP-tagged other half; fixed, anti-HA staining, spinning disk confocal imaging
T1 sequence: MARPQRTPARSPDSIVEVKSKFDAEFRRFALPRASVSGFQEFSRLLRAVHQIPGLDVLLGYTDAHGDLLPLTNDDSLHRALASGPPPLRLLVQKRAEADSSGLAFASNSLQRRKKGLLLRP

[2] = target: T2, GST-Par6^Nter (UniProt Q9NPB6); assay: pull-down; the two halves of Par6 expressed separately in E. coli BL21; lysates mixed and incubated with GST-4B resin for 1 hour at 4C; washed in 20 mM HEPES, 100 mM potassium acetate, 5% glycerol; western blot
T2 sequence: T1 sequence

[3] = target: T3, Mito-HA-Par6A^Cter (UniProt Q9NPB6); assay: mitochondrial relocalisation; NIH/3T3 Flp-In cells transiently transfected for 24 h with a Mito-HA-tagged half of Par6A and the cytosolic GFP-tagged other half; fixed, anti-HA staining, spinning disk confocal imaging
T3 sequence: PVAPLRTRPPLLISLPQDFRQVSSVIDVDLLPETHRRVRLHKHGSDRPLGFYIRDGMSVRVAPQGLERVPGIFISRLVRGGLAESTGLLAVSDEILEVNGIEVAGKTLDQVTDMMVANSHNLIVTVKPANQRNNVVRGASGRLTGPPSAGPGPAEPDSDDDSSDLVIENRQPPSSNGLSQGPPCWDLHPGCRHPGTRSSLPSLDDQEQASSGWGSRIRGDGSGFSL

binding [1]: binds
B1: cytosolic GFP-Par6A^Cter (domain or fragment, UniProt Q9NPB6 121-346)
chain: T3 sequence

binding [2]: binds
B2: PC-Par6^Cter (domain or fragment, UniProt Q9NPB6 121-346)
chain: T3 sequence

binding [3]: binds
B3: cytosolic GFP-Par6A^Nter (domain or fragment, UniProt Q9NPB6 1-121)
chain: T1 sequence
